Data published in PMC4492587.
Results are given in words; binding and its absence hold for the method and conditions named. Binding seen in cells or lysates may run through a third protein. Some results given as binding are weak or reduced against the parent protein; the word gives no strength. Where a sequence is shown, tags or fusion partners need not be part of it.

Chains of the proteins cited; added tags and fusions are not shown. Residues count along the entry.
UniProt P06473, residues 32-906: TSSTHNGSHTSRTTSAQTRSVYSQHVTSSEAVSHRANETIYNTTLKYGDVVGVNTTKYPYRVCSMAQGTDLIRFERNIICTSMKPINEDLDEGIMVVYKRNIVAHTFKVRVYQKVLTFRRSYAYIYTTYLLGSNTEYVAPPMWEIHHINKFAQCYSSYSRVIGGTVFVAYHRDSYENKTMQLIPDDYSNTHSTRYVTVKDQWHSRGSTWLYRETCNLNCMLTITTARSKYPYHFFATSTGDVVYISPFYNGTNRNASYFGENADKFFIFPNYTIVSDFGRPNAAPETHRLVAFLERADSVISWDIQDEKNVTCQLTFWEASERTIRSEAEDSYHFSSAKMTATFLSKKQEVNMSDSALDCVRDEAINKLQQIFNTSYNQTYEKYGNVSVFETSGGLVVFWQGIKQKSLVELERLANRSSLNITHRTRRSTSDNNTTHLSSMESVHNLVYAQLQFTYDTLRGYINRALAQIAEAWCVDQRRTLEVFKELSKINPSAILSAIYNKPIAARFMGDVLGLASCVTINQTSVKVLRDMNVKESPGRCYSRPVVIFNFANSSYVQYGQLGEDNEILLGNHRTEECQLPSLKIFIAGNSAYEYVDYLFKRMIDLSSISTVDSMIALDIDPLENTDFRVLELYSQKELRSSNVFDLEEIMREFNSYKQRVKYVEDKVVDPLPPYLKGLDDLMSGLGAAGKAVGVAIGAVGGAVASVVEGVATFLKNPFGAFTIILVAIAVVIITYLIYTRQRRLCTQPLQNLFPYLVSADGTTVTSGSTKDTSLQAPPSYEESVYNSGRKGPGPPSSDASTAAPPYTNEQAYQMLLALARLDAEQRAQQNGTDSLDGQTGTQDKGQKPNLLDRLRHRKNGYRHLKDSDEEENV
UniProt P17147: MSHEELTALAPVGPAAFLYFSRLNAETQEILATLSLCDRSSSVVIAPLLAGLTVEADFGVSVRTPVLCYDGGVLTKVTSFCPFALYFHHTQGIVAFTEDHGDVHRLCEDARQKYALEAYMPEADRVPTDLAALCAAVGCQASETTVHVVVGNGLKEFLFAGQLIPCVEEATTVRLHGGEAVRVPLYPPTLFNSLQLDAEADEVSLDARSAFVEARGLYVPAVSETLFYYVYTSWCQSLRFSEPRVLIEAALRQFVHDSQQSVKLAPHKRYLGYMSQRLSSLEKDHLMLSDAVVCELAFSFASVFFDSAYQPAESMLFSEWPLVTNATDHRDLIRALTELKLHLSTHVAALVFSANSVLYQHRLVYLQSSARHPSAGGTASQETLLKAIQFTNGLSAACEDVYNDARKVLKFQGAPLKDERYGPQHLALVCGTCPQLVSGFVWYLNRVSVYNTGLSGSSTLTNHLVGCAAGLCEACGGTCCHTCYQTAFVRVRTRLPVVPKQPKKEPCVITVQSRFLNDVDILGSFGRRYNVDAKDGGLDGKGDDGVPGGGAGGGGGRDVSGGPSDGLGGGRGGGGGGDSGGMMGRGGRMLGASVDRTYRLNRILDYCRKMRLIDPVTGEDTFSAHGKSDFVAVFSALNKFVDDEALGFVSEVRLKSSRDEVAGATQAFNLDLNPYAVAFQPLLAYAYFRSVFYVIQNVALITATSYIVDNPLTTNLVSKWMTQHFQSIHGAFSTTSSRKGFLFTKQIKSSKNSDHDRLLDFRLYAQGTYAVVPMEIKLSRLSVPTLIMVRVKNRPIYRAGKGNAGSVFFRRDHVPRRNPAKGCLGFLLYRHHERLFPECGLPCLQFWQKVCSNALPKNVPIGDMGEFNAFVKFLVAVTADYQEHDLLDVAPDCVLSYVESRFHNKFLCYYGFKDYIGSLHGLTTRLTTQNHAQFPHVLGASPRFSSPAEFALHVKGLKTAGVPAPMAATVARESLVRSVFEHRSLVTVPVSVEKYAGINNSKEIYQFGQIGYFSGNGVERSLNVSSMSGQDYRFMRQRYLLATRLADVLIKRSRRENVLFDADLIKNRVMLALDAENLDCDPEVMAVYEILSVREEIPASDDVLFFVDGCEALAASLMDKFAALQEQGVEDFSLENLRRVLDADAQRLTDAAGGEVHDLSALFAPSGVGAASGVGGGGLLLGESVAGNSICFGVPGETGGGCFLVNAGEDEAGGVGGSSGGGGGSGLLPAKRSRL

Biological target: T1, soluble THY-1-His protein (a.a. 20-130) (UniProt P04216)
T1 sequence: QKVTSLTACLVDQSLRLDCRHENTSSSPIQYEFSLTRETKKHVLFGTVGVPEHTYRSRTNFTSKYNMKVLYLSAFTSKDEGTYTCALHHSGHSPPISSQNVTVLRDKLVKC
Assay: pull-down; THY-1-His or control VZV gE-His bound to Ni-NTA or Talon columns; HCMV-infected cell lysate (PBS with 0.1% NP-40, or 25 mM Tris, 15 mM NaCl and 0.1% NP-40) incubated at 4°C overnight; washed with PBS, eluted with 250 mM imidazole, immunoblotted; only the target purified

Substance	binding
HCMV gB, full length (160 kD), from HCMV-infected cell lysate (from UniProt P06473 32-906)	binds
HCMV ICP8 (135 kD), from MRC-5 cells infected with HCMV AD169 (from UniProt P17147 1-1235)	no binding
